Test results taken from publication PMC9629621.
Results are given in words; binding and its absence hold for the method and conditions named. Binding seen in cells or lysates may run through a third protein. Some binding calls cover weakened binding; strength is not graded here. For some assays here: Sequences can lack the tags named with a protein.

Amino acid sequences for entries named in this document (tags omitted). A change or cut given only in a name is not applied to a line headed by its entry.
UniProt P32480: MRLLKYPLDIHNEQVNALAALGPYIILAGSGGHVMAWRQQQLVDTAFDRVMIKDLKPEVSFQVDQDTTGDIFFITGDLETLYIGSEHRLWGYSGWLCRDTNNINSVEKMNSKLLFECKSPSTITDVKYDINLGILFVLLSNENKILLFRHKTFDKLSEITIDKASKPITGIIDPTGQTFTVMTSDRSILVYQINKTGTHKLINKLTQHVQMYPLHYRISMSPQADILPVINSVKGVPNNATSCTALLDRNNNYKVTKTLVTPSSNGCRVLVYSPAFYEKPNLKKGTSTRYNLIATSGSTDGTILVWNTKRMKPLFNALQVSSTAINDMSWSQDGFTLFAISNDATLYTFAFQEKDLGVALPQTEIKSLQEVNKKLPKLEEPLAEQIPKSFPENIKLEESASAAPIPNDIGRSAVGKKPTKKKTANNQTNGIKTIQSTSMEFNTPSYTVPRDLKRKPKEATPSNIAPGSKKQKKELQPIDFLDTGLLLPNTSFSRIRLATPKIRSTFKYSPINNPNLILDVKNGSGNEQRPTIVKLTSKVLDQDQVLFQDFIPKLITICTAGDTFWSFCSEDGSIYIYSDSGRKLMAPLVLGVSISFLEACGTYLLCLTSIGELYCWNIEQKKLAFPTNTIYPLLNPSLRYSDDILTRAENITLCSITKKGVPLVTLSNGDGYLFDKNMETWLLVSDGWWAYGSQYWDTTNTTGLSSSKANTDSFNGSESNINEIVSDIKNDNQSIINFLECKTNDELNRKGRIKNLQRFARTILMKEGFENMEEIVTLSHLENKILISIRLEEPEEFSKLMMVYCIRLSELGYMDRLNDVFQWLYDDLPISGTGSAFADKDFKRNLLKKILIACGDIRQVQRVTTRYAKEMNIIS
UniProt P47079: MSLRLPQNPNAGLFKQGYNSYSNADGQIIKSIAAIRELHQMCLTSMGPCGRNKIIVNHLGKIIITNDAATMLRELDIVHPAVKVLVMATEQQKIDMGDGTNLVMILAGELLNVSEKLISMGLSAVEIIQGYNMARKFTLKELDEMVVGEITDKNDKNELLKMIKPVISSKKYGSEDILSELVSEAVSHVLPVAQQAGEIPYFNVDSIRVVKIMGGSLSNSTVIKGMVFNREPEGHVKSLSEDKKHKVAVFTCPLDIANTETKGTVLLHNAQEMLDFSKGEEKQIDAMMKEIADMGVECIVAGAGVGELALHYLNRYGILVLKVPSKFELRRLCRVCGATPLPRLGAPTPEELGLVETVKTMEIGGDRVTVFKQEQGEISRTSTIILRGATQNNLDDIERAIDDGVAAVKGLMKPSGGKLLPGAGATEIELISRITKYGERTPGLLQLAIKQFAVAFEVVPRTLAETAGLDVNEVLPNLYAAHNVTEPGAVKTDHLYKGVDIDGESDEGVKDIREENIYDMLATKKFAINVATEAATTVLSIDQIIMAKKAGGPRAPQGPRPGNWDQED
UniProt P10591: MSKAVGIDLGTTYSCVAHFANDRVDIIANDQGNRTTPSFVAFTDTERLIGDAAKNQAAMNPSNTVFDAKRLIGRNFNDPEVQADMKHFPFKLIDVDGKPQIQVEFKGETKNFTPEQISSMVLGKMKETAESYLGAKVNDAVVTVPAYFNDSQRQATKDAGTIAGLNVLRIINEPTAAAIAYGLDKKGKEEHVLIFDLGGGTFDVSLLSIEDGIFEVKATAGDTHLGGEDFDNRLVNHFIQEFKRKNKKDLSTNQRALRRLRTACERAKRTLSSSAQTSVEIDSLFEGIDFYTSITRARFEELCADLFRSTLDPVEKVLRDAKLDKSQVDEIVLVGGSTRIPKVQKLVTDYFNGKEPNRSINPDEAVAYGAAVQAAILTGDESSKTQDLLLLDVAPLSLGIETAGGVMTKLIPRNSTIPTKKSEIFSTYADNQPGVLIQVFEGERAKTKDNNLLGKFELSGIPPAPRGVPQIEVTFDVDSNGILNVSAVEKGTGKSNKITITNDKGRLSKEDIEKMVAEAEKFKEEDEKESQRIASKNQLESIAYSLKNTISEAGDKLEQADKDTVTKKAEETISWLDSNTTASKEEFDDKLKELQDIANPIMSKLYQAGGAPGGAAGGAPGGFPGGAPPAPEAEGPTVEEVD
UniProt P25491: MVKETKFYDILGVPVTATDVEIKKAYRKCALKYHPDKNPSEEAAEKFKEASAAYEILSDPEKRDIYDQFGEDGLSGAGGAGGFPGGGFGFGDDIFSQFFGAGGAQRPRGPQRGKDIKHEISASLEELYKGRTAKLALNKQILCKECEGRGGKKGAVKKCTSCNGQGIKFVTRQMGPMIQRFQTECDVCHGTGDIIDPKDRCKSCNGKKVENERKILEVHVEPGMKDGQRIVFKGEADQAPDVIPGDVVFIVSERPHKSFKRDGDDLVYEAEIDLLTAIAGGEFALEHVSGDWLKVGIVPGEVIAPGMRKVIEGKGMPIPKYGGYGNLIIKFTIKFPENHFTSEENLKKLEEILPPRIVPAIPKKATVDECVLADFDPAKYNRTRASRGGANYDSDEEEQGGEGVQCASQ

Legend:
[1] = target: Hir2 (immunoprecipitated from yeast) (S. cerevisiae) (UniProt P32480); test: co-IP; Co-IP of Hir1 and Hir2 from yeast followed by immunoblotting for chaperones (Fig 4C); beads and tag not told for this panel
[2] = target: Cct8 with an HA epitope tag at the carboxy terminus (S. cerevisiae) (UniProt P47079); test: co-IP; yeast extract (200 ug) on anti-HA magnetic beads, 4°C, 30 min; 50 mM Na-phosphate pH 8.0, 300 mM NaCl, 0.01% Tween-20; western blot
[3] = target: T1, Pcl7 with an HA epitope tag at the carboxy terminus (S. cerevisiae) (UniProt P40186); test: as above
T1 sequence: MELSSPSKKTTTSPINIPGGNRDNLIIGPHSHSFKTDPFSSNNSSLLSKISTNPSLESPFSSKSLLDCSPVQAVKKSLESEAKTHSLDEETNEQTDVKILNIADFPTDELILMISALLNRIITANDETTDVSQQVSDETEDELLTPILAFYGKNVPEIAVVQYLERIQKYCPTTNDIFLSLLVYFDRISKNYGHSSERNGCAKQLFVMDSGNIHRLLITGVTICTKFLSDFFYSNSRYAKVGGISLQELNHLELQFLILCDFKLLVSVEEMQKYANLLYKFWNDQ

[4] = target: T2, Ura8 with an HA epitope tag at the carboxy terminus (S. cerevisiae) (UniProt P38627); test: as above
T2 sequence: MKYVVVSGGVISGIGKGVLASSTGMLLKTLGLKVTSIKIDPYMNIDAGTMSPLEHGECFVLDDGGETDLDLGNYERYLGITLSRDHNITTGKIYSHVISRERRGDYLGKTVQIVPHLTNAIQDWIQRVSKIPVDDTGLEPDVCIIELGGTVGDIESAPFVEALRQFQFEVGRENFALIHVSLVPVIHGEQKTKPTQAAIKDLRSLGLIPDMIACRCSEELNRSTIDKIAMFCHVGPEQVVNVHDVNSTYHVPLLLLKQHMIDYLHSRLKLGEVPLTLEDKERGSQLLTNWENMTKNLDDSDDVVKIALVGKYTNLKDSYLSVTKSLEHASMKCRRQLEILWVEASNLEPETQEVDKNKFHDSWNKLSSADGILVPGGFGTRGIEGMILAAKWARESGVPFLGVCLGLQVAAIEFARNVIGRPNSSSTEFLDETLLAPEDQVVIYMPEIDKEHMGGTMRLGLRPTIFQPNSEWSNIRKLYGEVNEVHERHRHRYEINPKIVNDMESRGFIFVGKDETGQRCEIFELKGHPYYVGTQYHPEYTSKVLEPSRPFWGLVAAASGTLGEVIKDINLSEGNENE

[5] = target: T3, Mtw1 Y86F (non-phosphorylatable mutant) (S. cerevisiae) (UniProt P39731); test: co-IP; yeast extract (200 ug) on anti-Flag M2 magnetic beads, 4°C overnight; 50 mM Na-phosphate pH 8.0, 300 mM NaCl, 0.01% Tween-20; eluted with 3x FLAG peptide; western blot
T3 sequence: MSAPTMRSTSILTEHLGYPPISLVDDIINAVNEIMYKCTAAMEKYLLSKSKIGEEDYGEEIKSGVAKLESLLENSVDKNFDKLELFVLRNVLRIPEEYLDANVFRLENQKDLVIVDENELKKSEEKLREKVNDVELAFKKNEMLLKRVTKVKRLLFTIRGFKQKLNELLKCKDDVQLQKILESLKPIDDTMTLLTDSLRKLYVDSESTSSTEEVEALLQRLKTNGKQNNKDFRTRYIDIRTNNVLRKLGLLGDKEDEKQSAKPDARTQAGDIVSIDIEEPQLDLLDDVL

[6] = target: FLAG-Ssa1 V435F (substrate-binding deficient mutant) (S. cerevisiae) (UniProt P10591); test: as above
[7] = target: Ssa1 wild type, epitope-tagged (FLAG-Ssa1, GFP-Ssa1, HA-Ssa1) (S. cerevisiae) (UniProt P10591); test: as above

Measured: binding

Ssa1 (endogenous, detected with anti-Ssa1) (from UniProt P10591 1-642)
not listed: [6] | [7]
binds: all other assays above

Ydj1 co-chaperone (from UniProt P25491 1-409)
not listed: [5]
binds: all other assays above
